Test results from patent US20210401708A1, “Skin Anti-Aging Composition Containing Irilin B” (PHYTO CORPORATION INC., priority 2018, published 2021).

System: Human skin keratinocytes
Assay: Keratinocyte differentiation promoting effect
Format: cell-based
Method: Human skin keratinocytes (Korean Cell Line Bank) were seeded in the CO2 incubation flask in which DMEM containing 10% FBS was placed. After the cells were grown to a confluency of about 80%, Irilin B at different concentrations (5, 10, 20, 50, 100 μg/ml) were added to the cells, followed by incubation for 3 days. Thereafter, the cells were treated with a reduction modifier, such as sodium dodecyl sulfate (SDS) and β-mercaptoethanol, to remove proteins. After the treatment, the remaining keratinocyte layer was suspended in distilled water, and then the absorbance was measured at 310 nm to analyze the peptide concentration. The increase by each sample was compared on the basis of the negative control, distilled water (0%). In the positive control, the cells were treated with 10 nM TGF-β known as a cell differentiation factor. All the tests of keratinocyte differentiation promoting effect were repeatedly carried out three times. The absorbance at 310 nm is expressed as a mean and standard deviation, and the cell differentiation promoting effect is expressed, using the following calculation formula, as an average value (%), in Table 4.
Cell differentiation promoting effect (%)=(absorbance value at 310 nm in test sample−absorbance value at 310 nm in negative control)×100 [Calculation Formula]

COc1c(O)cc2occ(-c3ccccc3O)c(=O)c2c1O [Irilin B, 5,7,2′-trihydroxy-6-methoxyisoflavone]
Absorbance (310 nm) (10 μg/ml, 3 days): 0.839 ± 0.05
Absorbance (310 nm) (20 μg/ml, 3 days): 1.024 ± 0.06
Absorbance (310 nm) (50 μg/ml, 3 days): 1.510 ± 0.04
Absorbance (310 nm) (100 μg/ml, 3 days): 1.981 ± 0.08

transforming growth factor-β (TGF-β)
Absorbance (310 nm) (10 nM): 2.004 ± 0.03
